Assay results from US20250283871A1, “COMPOSITIONS AND METHODS FOR MODULATING THE INTERACTION BETWEEN SS18-SSX FUSION ONCOPROTEIN AND NUCLEOSOMES” (Dana-Farber Cancer Institute, Inc., priority 2020, published 2025).

B1: METTL13 (protein, UniProt Q8N6R0 1-699, looked up)
eEF1A lysine and N-terminal …: MNLLPKSSREFGSVDYWEKFFQQRGKKAFEWYGTYLELCGVLHKYIKPREKVLVIGCGNSELSEQLYDVGYRDIVNIDISEVVIKQMKECNATRRPQMSFLKMDMTQMEFPDASFQVVLDKGTLDAVLTDEEEKTLQQVDRMLAEVGRVLQVGGRYLCISLAQAHILKKAVGHFSREGWMVRVHQVANSQDQVLEAEPQFSLPVFAFIMTKFRPVPGSALQIFELCAQEQRKPVRLESAERLAEAVQERQQYAWLCSQLRRKARLGSVSLDLCDGDTGEPRYTLHVVDSPTVKPSRDNHFAIFIIPQGRETEWLFGMDEGRKQLAASAGFRRLITVALHRGQQYESMDHIQAELSARVMELAPAGMPTQQQVPFLSVGGDIGVRTVQHQDCSPLSGDYVIEDVQGDDKRYFRRLIFLSNRNVVQSEARLLKDVSHKAQKKRKKDRKKQRPADAEDLPAAPGQSIDKSYLCCEHHKAMIAGLALLRNPELLLEIPLALLVVGLGGGSLPLFVHDHFPKSCIDAVEIDPSMLEVATQWFGFSQSDRMKVHIADGLDYIASLAGGGEARPCYDVIMFDVDSKDPTLGMSCPPPAFVEQSFLQKVKSILTPEGVFILNLVCRDLGLKDSVLAGLKAVFPLLYVRRIEGEVNEILFCQLHPEQKLATPELLETAQALERTLRKPGRGWDDTYVLSDMLKTVKIV
B2: KDM4D (protein, UniProt Q6B0I6 1-523, looked up)
Lysine-specific demethylase 4D: METMKSKANCAQNPNCNIMIFHPTKEEFNDFDKYIAYMESQGAHRAGLAKIIPPKEWKARETYDNISEILIATPLQQVASGRAGVFTQYHKKKKAMTVGEYRHLANSKKYQTPPHQNFEDLERKYWKNRIYNSPIYGADISGSLFDENTKQWNLGHLGTIQDLLEKECGVVIEGVNTPYLYFGMWKTTFAWHTEDMDLYSINYLHLGEPKTWYVVPPEHGQRLERLARELFPGSSRGCGAFLRHKVALISPTVLKENGIPFNRITQEAGEFMVTFPYGYHAGFNHGFNCAEAINFATPRWIDYGKMASQCSCGEARVTFSMDAFVRILQPERYDLWKRGQDRAVVDHMEPRVPASQELSTQKEVQLPRRAALGLRQLPSHWARHSPWPMAARSGTRCHTLVCSSLPRRSAVSGTATQPRAAAVHSSKKPSSTPSSTPGPSAQIIHPSNGRRGRGRPPQKLRAQELTLQTPAKRPLLAGTTCTASGPEPEPLPEDGALMDKPVPLSPGLQHPVKASGCSWAPVP
B3: STX17 (protein, UniProt P56962 2-302, looked up)
Syntaxin-17: SEDEEKVKLRRLEPAIQKFIKIVIPTDLERLRKHQINIEKYQRCRIWDKLHEEHINAGRTVQQLRSNIREIEKLCLKVRKDDLVLLKRMIDPVKEEASAATAEFLQLHLESVEELKKQFNDEETLLQPPLTRSMTVGGAFHTTEAEASSQSLTQIYALPEIPQDQNAAESWETLEADLIELSQLVTDFSLLVNSQQEKIDSIADHVNSAAVNVEEGTKNLGKAAKYKLAALPVAGALIGGMVGGPIGLLAGFKVAGIAAALGGGVLGFTGGKLIQRKKQKMMEKLTSSCPDLPSQTDKKCS
B4: PAM16 (protein)
chain: MAKYLAQIIVMGVQVVGRAFARALRQEFAASRAAADARGRAGHRSAAASNLSGLSLQEAQQILNVSKLSPEEVQKNYEHLFKVNDKSVGGSFYLQSKVVRAKERLDEELKIQAQEDREKGQMPHT
B5: ALG1 (protein, UniProt Q9BT22 1-464, looked up)
Chitobiosyldiphosphodolichol …: MAASCLVLLALCLLLPLLLLGGWKRWRRGRAARHVVAVVLGDVGRSPRMQYHALSLAMHGFSVTLLGFCNSKPHDELLQNNRIQIVGLTELQSLAVGPRVFQYGVKVVLQAMYLLWKLMWREPGAYIFLQNPPGLPSIAVCWFVGCLCGSKLVIDWHNYGYSIMGLVHGPNHPLVLLAKWYEKFFGRLSHLNLCVTNAMREDLADNWHIRAVTVYDKPASFFKETPLDLQHRLFMKLGSMHSPFRARSEPEDPVTERSAFTERDAGSGLVTRLRERPALLVSSTSWTEDEDFSILLAALEKFEQLTLDGHNLPSLVCVITGKGPLREYYSRLIHQKHFQHIQVCTPWLEAEDYPLLLGSADLGVCLHTSSSGLDLPMKVVDMFGCCLPVCAVNFKCLHELVKHEENGLVFEDSEELAAQLQMLFSNFPDPAGKLNQFRKNLRESQQLRWDESWVQTVLPLVMDT
B6: TADA3 (protein, UniProt O75528 1-432, looked up)
Transcriptional adapter 3: MSELKDCPLQFHDFKSVDHLKVCPRYTAVLARSEDDGIGIEELDTLQLELETLLSSASRRLRVLEAETQILTDWQDKKGDRRFLKLGRDHELGAPPKHGKPKKQKLEGKAGHGPGPGPGRPKSKNLQPKIQEYEFTDDPIDVPRIPKNDAPNRFWASVEPYCADITSEEVRTLEELLKPPEDEAEHYKIPPLGKHYSQRWAQEDLLEEQKDGARAAAVADKKKGLMGPLTELDTKDVDALLKKSEAQHEQPEDGCPFGALTQRLLQALVEENIISPMEDSPIPDMSGKESGADGASTSPRNQNKPFSVPHTKSLESRIKEELIAQGLLESEDRPAEDSEDEVLAELRKRQAELKALSAHNRTKKHDLLRLAKEEVSRQELRQRVRMADNEVMDAFRKIMAARQKKRTPTKKEKDQAWKTLKERESILKLLDG
B7: SGPL1 (protein, UniProt O95470 1-568, looked up)
Sphingosine-1-phosphate lyase …: MPSTDLLMLKAFEPYLEILEVYSTKAKNYVNGHCTKYEPWQLIAWSVVWTLLIVWGYEFVFQPESLWSRFKKKCFKLTRKMPIIGRKIQDKLNKTKDDISKNMSFLKVDKEYVKALPSQGLSSSAVLEKLKEYSSMDAFWQEGRASGTVYSGEEKLTELLVKAYGDFAWSNPLHPDIFPGLRKIEAEIVRIACSLFNGGPDSCGCVTSGGTESILMACKAYRDLAFEKGIKTPEIVAPQSAHAAFNKAASYFGMKIVRVPLTKMMEVDVRAMRRAISRNTAMLVCSTPQFPHGVIDPVPEVAKLAVKYKIPLHVDACLGGFLIVFMEKAGYPLEHPFDFRVKGVTSISADTHKYGYAPKGSSLVLYSDKKYRNYQFFVDTDWQGGIYASPTIAGSRPGGISAACWAALMHFGENGYVEATKQIIKTARFLKSELENIKGIFVFGNPQLSVIALGSRDFDIYRLSNLMTAKGWNLNQLQFPPSIHFCITLLHARKRVAIQFLKDIRESVTQIMKNPKAKTTGMGAIYGMAQTTVDRNMVAELSSVFLDSLYSTDTVTQGSQMNGSPKPH
B8: CLN6 (protein, UniProt Q9NWW5 1-311, looked up)
Ceroid-lipofuscinosis …: MEATRRRQHLGATGGPGAQLGASFLQARHGSVSADEAARTAPFHLDLWFYFTLQNWVLDFGRPIAMLVFPLEWFPLNKPSVGDYFHMAYNVITPFLLLKLIERSPRTLPRSITYVSIIIFIMGASIHLVGDSVNHRLLFSGYQHHLSVRENPIIKNLKPETLIDSFELLYYYDEYLGHCMWYIPFFLILFMYFSGCFTASKAESLIPGPALLLVAPSGLYYWYLVTEGQIFILFIFTFFAMLALVLHQKRKRLFLDSNGLFLFSSFALTLLLVALWVAWLWNDPVLRKKYPGVIYVPEPWAFYTLHVSSRH
B9: CPSF1 (protein, UniProt Q10570 1-1443, looked up)
Cleavage and polyadenylation …: MYAVYKQAHPPTGLEFSMYCNFFNNSERNLVVAGTSQLYVYRLNRDAEALTKNDRSTEGKAHREKLELAASFSFFGNVMSMASVQLAGAKRDALLLSFKDAKLSVVEYDPGTHDLKTLSLHYFEEPELRDGFVQNVHTPRVRVDPDGRCAAMLVYGTRLVVLPFRRESLAEEHEGLVGEGQRSSFLPSYIIDVRALDEKLLNIIDLQFLHGYYEPTLLILFEPNQTWPGRVAVRQDTCSIVAISLNITQKVHPVIWSLTSLPFDCTQALAVPKPIGGVVVFAVNSLLYLNQSVPPYGVALNSLTTGTTAFPLRTQEGVRITLDCAQATFISYDKMVISLKGGEIYVLTLITDGMRSVRAFHFDKAAASVLTTSMVTMEPGYLFLGSRLGNSLLLKYTEKLQEPPASAVREAADKEEPPSKKKRVDATAGWSAAGKSVPQDEVDEIEVYGSEAQSGTQLATYSFEVCDSILNIGPCANAAVGEPAFLSEEFQNSPEPDLEIVVCSGHGKNGALSVLQKSIRPQVVTTFELPGCYDMWTVIAPVRKEEEDNPKGEGTEQEPSTTPEADDDGRRHGFLILSREDSTMILQTGQEIMELDTSGFATQGPTVFAGNIGDNRYIVQVSPLGIRLLEGVNQLHFIPVDLGAPIVQCAVADPYVVIMSAEGHVTMFLLKSDSYGGRHHRLALHKPPLHHQSKVITLCLYRDLSGMFTTESRLGGARDELGGRSGPEAEGLGSETSPTVDDEEEMLYGDSGSLFSPSKEEARRSSQPPADRDPAPFRAEPTHWCLLVRENGTMEIYQLPDWRLVFLVKNFPVGQRVLVDSSFGQPTTQGEARREEATRQGELPLVKEVLLVALGSRQSRPYLLVHVDQELLIYEAFPHDSQLGQGNLKVRFKKVPHNINFREKKPKPSKKKAEGGGAEEGAGARGRVARFRYFEDIYGYSGVFICGPSPHWLLVTGRGALRLHPMAIDGPVDSFAPFHNVNCPRGFLYFNRQGELRISVLPAYLSYDAPWPVRKIPLRCTAHYVAYHVESKVYAVATSTNTPCARIPRMTGEEKEFETIERDERYIHPQQEAFSIQLISPVSWEAIPNARIELQEWEHVTCMKTVSLRSEETVSGLKGYVAAGTCLMQGEEVTCRGRILIMDVIEVVPEPGQPLTKNKFKVLYEKEQKGPVTALCHCNGHLVSAIGQKIFLWSLRASELTGMAFIDTQLYIHQMISVKNFILAADVMKSISLLRYQEESKTLSLVSRDAKPLEVYSVDFMVDNAQLGFLVSDRDRNLMVYMYLPEAKESFGGMRLLRRADFHVGAHVNTFWRTPCRGATEGLSKKSVVWENKHITWFATLDGGIGLLLPMQEKTYRRLLMLQNALTTMLPHHAGLNPRAFRMLHVDRRTLQNAVRNVLDGELLNRYLYLSTMERSELAKKIGTTPDIILDDLLETDRVTAHF

system: BAF complex subunits and histone proteins; test: Mass spectrometry proteomics of purified HA-SS18 WT and HA-SS18-SSX1 complexes (Tables 5A-5E); set-up: species or system human; conditions: HA-SS18SSX1_NE_peptides: protein co-purified with HA-SS18-SSX1 BAF complexes from soluble nuclear extract (NE), HEK-293T cells

Total (peptides), 1:
B1
B2
B3
B4
B5
B6
B7
B8

Unique (peptides), 1:
B1
B2
B3
B4
B5
B6
B7
B8

same assay, conditions: HA-SS18SSX1 purification, NE (soluble nuclear extract) fraction, HEK-293T; peptides per identified protein

Total (total peptides), 18:
B9

Unique (unique peptides), 16:
B9

same assay, conditions: HA-SS18WT_NE_peptides: HA-SS18 WT complexes purified from nuclear extract (NE), HEK-293T; label = protein identified (Gene Symbol)

Total (peptides), 17:
B9

Total (peptides), 2:
B7

Unique (peptides), 2:
B7

Unique (peptides), 17:
B9

same assay, conditions: HA-SS18WT_NE_peptides: proteins co-purified with HA-SS18 WT from nuclear extract (NE), HEK-293T

Total (peptides), 1:
B1
B4
B5
B6

Unique (peptides), 1:
B1
B4
B5
B6
